According to paper PMC10178772:
No constants are given. Whether binding was seen depends on the method and setting. Binding seen in cells or lysates may run through a third protein. Some entries that bind do so weakly or less than the wild type.

Chains of the proteins cited; added tags and fusions are not shown. Residues count along the entry.
UniProt O14786, residues 22-923: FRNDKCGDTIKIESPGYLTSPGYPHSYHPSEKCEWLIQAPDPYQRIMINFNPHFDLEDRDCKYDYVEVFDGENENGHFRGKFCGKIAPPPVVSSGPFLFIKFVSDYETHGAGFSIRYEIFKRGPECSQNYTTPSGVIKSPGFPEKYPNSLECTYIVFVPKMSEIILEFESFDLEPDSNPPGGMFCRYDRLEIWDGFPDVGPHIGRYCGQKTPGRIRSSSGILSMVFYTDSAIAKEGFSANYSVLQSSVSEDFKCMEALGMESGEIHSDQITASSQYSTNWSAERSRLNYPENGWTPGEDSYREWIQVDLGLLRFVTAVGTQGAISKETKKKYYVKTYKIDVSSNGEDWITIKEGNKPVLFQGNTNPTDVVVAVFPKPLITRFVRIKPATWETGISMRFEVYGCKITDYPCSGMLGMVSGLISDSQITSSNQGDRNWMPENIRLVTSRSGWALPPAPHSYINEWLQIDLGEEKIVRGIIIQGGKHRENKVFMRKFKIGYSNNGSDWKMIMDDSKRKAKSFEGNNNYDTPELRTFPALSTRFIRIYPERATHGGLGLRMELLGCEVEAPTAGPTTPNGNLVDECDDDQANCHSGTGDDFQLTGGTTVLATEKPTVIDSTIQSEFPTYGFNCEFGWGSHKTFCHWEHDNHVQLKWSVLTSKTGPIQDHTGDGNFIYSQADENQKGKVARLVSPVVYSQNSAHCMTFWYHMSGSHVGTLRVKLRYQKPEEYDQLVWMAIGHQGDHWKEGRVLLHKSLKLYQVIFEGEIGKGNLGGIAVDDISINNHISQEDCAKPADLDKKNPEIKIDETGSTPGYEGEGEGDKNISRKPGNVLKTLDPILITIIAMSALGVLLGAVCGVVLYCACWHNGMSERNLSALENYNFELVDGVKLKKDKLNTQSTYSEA
UniProt P05106, residues 27-788: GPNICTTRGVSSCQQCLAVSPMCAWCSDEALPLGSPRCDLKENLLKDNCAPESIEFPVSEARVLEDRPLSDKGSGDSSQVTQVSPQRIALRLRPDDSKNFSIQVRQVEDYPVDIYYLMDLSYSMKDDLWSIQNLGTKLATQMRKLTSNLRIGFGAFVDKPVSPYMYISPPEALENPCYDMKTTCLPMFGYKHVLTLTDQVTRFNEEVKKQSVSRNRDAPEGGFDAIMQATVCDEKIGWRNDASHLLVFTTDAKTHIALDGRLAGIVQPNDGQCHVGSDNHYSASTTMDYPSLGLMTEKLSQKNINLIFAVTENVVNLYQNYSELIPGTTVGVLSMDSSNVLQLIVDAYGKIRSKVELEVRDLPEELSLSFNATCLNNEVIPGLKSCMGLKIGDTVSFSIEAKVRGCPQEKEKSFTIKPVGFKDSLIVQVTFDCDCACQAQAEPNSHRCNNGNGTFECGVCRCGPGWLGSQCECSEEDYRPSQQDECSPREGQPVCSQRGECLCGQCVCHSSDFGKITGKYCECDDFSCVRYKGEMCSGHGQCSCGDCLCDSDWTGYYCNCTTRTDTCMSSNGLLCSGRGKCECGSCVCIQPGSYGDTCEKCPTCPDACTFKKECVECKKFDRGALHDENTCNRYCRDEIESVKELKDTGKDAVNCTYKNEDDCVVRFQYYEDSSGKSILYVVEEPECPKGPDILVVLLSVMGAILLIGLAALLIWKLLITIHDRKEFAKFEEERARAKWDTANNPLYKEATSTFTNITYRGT

Biological target: HER-2 (human (endogenous in MDA-MB-231)) (UniProt P04626)
Assay: co-IP; HER2 antibody immunoprecipitates HER2 from soluble cell lysates (Cell Signaling lysis buffer Cat# 9803) of parental MDA-MB-231, NRP-1 KO and NRP-1 rescue cells; blot probed in turn with anti-NRP-1, anti-HER-2 and anti-ITGB3; control IP with lysis buffer without protein

| binding | Substance |
| --- | --- |
| binds | Neuropilin-1 (NRP-1), endogenous in parental MDA-MB-231 cells (from UniProt O14786 22-923) (receptor) |
| binds | Neuropilin-1 (NRP-1) from the CRISPR/Cas9-resistant human rescue cDNA in NRP-1 KO MDA-MB-231 cells (from UniProt O14786 22-923) (receptor) |
| binds | Integrin β3 (ITGB3) (from UniProt P05106 27-788) (receptor) |
